Earlier results on one molecule are cited in patent US8975259B2, “Compositions and methods for inhibiting G protein signaling” (University of Rochester, priority 2007, dated 2015).

Protein sequences, listed by entry. Tags and fused reporters are not part of them. Residues count along the entry.
UniProt P54311, whole entry: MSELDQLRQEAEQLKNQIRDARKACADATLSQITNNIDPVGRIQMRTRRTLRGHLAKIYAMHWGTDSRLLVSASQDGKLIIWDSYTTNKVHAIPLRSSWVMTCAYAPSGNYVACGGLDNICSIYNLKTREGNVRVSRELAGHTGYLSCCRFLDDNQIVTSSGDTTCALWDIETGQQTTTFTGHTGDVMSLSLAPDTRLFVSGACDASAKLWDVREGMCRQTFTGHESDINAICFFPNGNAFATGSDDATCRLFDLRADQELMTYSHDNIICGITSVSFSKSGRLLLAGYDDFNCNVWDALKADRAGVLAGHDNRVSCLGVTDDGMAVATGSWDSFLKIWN
UniProt P63212, 2-68 limits assumed: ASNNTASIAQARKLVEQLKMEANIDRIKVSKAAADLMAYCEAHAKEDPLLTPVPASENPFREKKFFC

The series has as its target Gβ1γ2 (UniProt P54311+P63212). Particulars: read-out: IC50 ELISA; Table 20, competition ELISA for SIGK binding; data from Bonacci et al. (2006); cited from earlier work. (An ELISA detects its analyte on a solid surface through an enzyme-linked reagent.)

pIC50: −log10 of the molar value. The structures given here were assigned with low confidence; some may be wrong.

Consider `O=C(O)C1CC=CCC1c1c2ccc(=O)cc-2oc2cc(O)ccc12` (stereo not shown), for which the pIC50 is 4.15.

By pIC50 is commonly meant −log10 of the IC50, conventionally taken in molar units.
